# Measurements taken from PubChem BioAssay AID2685 (National Center for Advancing Translational Sciences (NCATS), 2010).
# Screen size: about 320,000 compounds; about 2,100 (0.66%) were called active. Inconclusive results, whose numbers are uncertain, are shown with a selection of clear calls. Calls come from the whole dose curve; as a rule, active = well fitted inhibition curve with a large enough effect in the signal ratio, with a control signal flat (not every such curve was filed as active); inconclusive = small, poorly fitted or top-dose-only effect, or effect the other way, or a change in a side signal; inactive = flat fitted curve, though single readings scatter; the % refers to the signal ratio. A potency beside an inconclusive call is a rough fit, not a confirmed value.
# Assay: qHTS Assay for Lipid Storage Modulators in Drosophila S3 Cells
# Conditions: BODIPY lipid droplet fluorescence, 18-24 h, cells fed with added oleic acid; lipid storage change, negative = inhibition: at 46.1 µM (top of the series) unless noted
# Procedure, shortened: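 Laser-scanning cytometry quantifies lipid droplet accumulation (500–530 nm total intensity; droplet/cell object ratio) in oleic acid-fed (400 uM added) Drosophila S3 cells treated with a concentration series. 20 uM Triacsin C defined 100% inhibition.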
# % is set by controls: 0 for no effect and ±100 for the full control effect; potency is the fitted concentration of half-maximal effect.
Compound,"lipid storage change, negative = inhibition",Potency
Oc1c(C(c2ccc(Cl)cc2)N2CCCC2)cc(Cl)c2cccnc12 (stereo not given),inconclusive: 15.4%,
CCn1c(SCC(=O)N2CCN(c3ccccc3)CC2)nnc1-c1ccoc1C,inconclusive: -3.89% [at 9.22 µM],
O=C(c1ccc(Cl)s1)N1CCN(c2nc3ccccc3s2)CC1,inconclusive: -10.5% [at 9.22 µM],
COc1cc(OC)c(C2SCCS2)c(OC)c1,inconclusive: 31.1%,
O=c1c2ccccc2c2ccccc2c(=O)n1Cc1ccco1,inconclusive: -42.8%,
CC1C/C(=N/Nc2nc3ccccc3[nH]2)CC(C)(C)C1 (stereo not given),inconclusive: 99.8%,
Cc1cccc(C)c1Nc1nnc(SCC(=O)Nc2sccc2C#N)s1,inconclusive: 108%,
O=C(O)C1C2C=CC3(CN(Cc4ccco4)C(=O)C13)O2 (stereo not given),,"inconclusive: 0.103 µM [activator, full curve]"
COc1ccc(C(CC(=O)Nc2ccc(C)cn2)N2Cc3ccccc3C2=O)cc1 (stereo not given),,"inconclusive: 25.9 µM [activator, partial curve, poor fit]"
COc1ccc2oc(C)c(C(=O)c3ccc(C)cc3)c2c1,inconclusive: 33.6%,
Cc1ccc(NC2c3ncccc3C(=O)N2Cc2cccs2)cc1C (stereo not given),inconclusive: -18%,
C(=N\c1nc2ccccc2[nH]1)/c1cccs1,inconclusive: 6.51%,
ClCc1csc(-c2ccc(Cl)cc2)n1,inconclusive: 7.58%,
CC1CCCN(S(=O)(=O)c2ccc(NC(=O)CN3CCN(C)CC3)cc2)C1 (stereo not given),inconclusive: 21.5%,
CCOc1ccc(NC(=O)c2ccc(CSc3nnnn3C)cc2)cc1,inconclusive: 4.44%,
COc1ccccc1N1CCN(c2cc(=O)n(-c3ccccc3Cl)c(=O)[nH]2)CC1,inconclusive: 17.8%,
CC(Oc1ccccc1)C(=O)Nc1cccc([N+](=O)[O-])c1 (stereo not given),,"inconclusive: 0.0052 µM [falling, full curve, poor fit]"
CCOc1ccccc1OCC(=O)NCc1ccco1,inconclusive: 28.9%,
O=S(=O)(Cc1ccc(Cl)cc1)N1CCN(c2ncccn2)CC1,inconclusive: 20.1%,
Cn1c(SCC(=O)NCc2ccco2)nnc1C1CCCC1,,"inconclusive: 16.4 µM [activator, partial curve, poor fit]"
O=C(COC(=O)c1ccc2c(c1)OCO2)NC1CCS(=O)(=O)C1 (stereo not given),inconclusive: 5.08%,
N#C/C(=N\Nc1ccccc1)C(=N)N1CCCCC1,inconclusive: -4.47%,
Nc1nnc(-c2ccccc2[N+](=O)[O-])o1,inconclusive: 7.4%,
CC(C)(CSc1nncn1/N=C/c1ccco1)NS(=O)(=O)c1ccc(Cl)cc1,,"inconclusive: 6.51 µM [activator, single point]"
CCC(C(=O)Nc1cccc(C(F)(F)F)c1)c1ccccc1 (stereo not given),inconclusive: -7.67%,
Cc1c(N=Cc2cc3c(cc2Cl)OCO3)c(=O)n(-c2ccccc2)n1C,,"inconclusive: 0.0046 µM [falling, full curve, poor fit]"
c1cn2c(Nc3ccc4c(c3)OCCO4)c(-c3ccc(N4CCOCC4)cc3)nc2cn1,inconclusive: 41.9%,

# Record cards (already shown).
# CCOc1ccc(NC(=O)c2ccc(CSc3nnnn3C)cc2)cc1 in the list: lipid storage change, negative = inhibition: inconclusive: 4.44%
# ClCc1csc(-c2ccc(Cl)cc2)n1 in the list: lipid storage change, negative = inhibition: inconclusive: 7.58%

# Later entries:

Compound,"lipid storage change, negative = inhibition",Potency
CCCCSc1nnc2c(n1)OC=Nc1ccccc1-2,inconclusive: 24.5%,
CCc1ccccc1NC(=S)NN,inconclusive: 16.3%,
CC1(c2ccccc2Cl)NC(=O)N(CC(=O)Nc2cccnc2Cl)C1=O (stereo not given),inconclusive,
COc1ccc(-c2cn3c(C)c(C(=O)NCCN4CCOCC4)sc3n2)cc1,,"inconclusive: 3.26 µM [activator, single point]"
C=CCCC(=O)N1CCC(Oc2cccc(C(=O)NCc3ccccn3)c2)CC1,inconclusive: 19.3%,
CC1(C)CC(NC(=O)C2CCCCC2)CC(C)(C)N1,inconclusive: 14.5%,
Cc1ccc2nc(Cl)c(CN(C(=O)c3cnccn3)C3CCCCC3)cc2c1,inconclusive: -5.63%,
COc1cccc(NC(=O)C2C3C=CC(O3)C2C(=O)O)c1 (stereo not given),inconclusive: 8.49%,
COc1ccccc1OCc1ccc(C(=O)c2ccccc2)cc1,inconclusive: -7.24%,
O=C(NC(=S)NCC1CCCO1)c1ccccc1 (stereo not given),inconclusive: 3.3%,
Cc1ccc2nc(/C(C#N)=C\c3ccc([N+](=O)[O-])o3)[nH]c2c1,,active: 6.51 µM
CN(CCC#N)C(=O)CSc1nc2scc(-c3ccccc3)c2c(=O)[nH]1,inconclusive: 23%,
CCCC(C(=O)NCCC(C)C)N(Cc1ccccc1Cl)C(=O)c1snc(C(N)=O)c1N (stereo not given),,"inconclusive: 10.3 µM [cytotoxic, partial curve]"
Cc1ccc(C)c(NC(=S)N/N=C/C(C)c2ccccc2)c1 (stereo not given),inconclusive: 6.27%,
CCOC(=O)c1c(C)c(C(=O)Nc2ccc(N(C)C)cc2)c(C)n1CC,,"inconclusive: 2.06 µM [rising, full curve, poor fit]"
CCN(CC)C(=O)C(=O)Nc1cccc(Br)c1,inconclusive: 5.98%,
COc1ccc(-n2nc(C(=O)NCC(=O)N3CCCCCC3)c3ccccc3c2=O)cc1,inconclusive: -100%,
COc1ccc(Nc2nc(N3CCCC3)nc3ccccc23)c(OC)c1,inconclusive: -133%,
COc1ccc(-c2cc(C)no2)cc1S(=O)(=O)N1CCCN(Cc2ccc(F)cc2)C1,inconclusive: 42%,
COc1ccc(Cl)cc1S(=O)(=O)N1CCCC(C(=O)NCc2ccccc2)C1 (stereo not given),inconclusive: -13.7%,
O=C1CC(/C=C/c2cccnc2)=Nc2ccccc2N1,,"inconclusive: 0.366 µM [activator, partial curve, poor fit]"
O=c1c2cc(F)ccc2[nH]c(=S)n1Cc1ccc(F)cc1,inconclusive: 32%,
NC(=O)c1ccc(NC(=O)COC(=O)c2ccccc2Nc2ccccc2)cc1,inconclusive: 38%,
CCc1nc2ccc(C(=O)NCc3ccco3)cc2nc1CC,,"inconclusive: 1.84 µM [activator, full curve, poor fit]"
CCOC(=O)CC1COCCN1Cc1cn(C)nc1-c1ccccc1F (stereo not given),inconclusive: 28.3%,
c1ccc2c(c1)ncn2CCOCCOCCn1cnc2ccccc21,inconclusive: -71.7%,
O=C1COc2ccc(C(=O)CSc3nnc(Cc4ccccc4)o3)cc2N1,inconclusive: 25.1%,

# In the list so far, these contain a COOH group:
Compound,"lipid storage change, negative = inhibition",Potency
O=C(O)C1C2C=CC3(CN(Cc4ccco4)C(=O)C13)O2 (stereo not given),,"inconclusive: 0.103 µM [activator, full curve]"
COc1cccc(NC(=O)C2C3C=CC(O3)C2C(=O)O)c1 (stereo not given),inconclusive: 8.49%,

# Next records

Compound,"lipid storage change, negative = inhibition",Potency
Cc1nnc(NC(=O)CSc2nnc(NC(=O)C(C)(C)C)s2)s1,inconclusive: 19.8% [at 9.22 µM],
COc1ccc(CNC(=O)CSc2nnnn2-c2ccccc2)cc1,inconclusive: 24.8%,
CC(=O)Nc1ccc(S(=O)(=O)NC2(C(F)(F)F)C(=O)Nc3c2c(=O)[nH]c(=O)n3Cc2ccco2)cc1 (stereo not given),,"inconclusive: 0.13 µM [falling, full curve, poor fit]"
Cc1cc(SCC2=NNC(=O)C2)c(Cl)cc1Cl,inconclusive: 0.459%,
O=C(COc1cccnc1[N+](=O)[O-])NCc1ccc2c(c1)OCO2,inconclusive: 14.8%,
COc1ccc(C(C)(C)C)cc1NC(=O)COC(=O)c1nc2nccc(C)n2n1,inconclusive: 13%,
COc1ccc(CNC(=O)COC(=O)c2ccc(OCC3CCCO3)cc2)cc1 (stereo not given),,"inconclusive: 0.0052 µM [falling, full curve, poor fit]"
CCN(Cc1ccncc1)Cc1ccc(OC)cc1OC,,"inconclusive: 6.51 µM [activator, partial curve, poor fit]"
CSc1ncccc1C(=O)N1CCCC(C(=O)c2ccc3ccccc3c2)C1 (stereo not given),inconclusive: -25.6%,
CC(C)C(=O)Nc1ccc(NC(=O)c2ccco2)cn1,,"inconclusive: 0.13 µM [falling, full curve, poor fit]"
Cc1cc(Sc2nnc(/N=C/N(C)C)s2)c2ccccc2n1,inconclusive: -17.6%,
CC(C)Oc1ccccc1C(=O)NC(CO)C(=O)O (stereo not given),inactive,
COc1ccc(/C=C/C(=O)N2CCN(c3ccccc3)CC2)cc1S(=O)(=O)N1CCOCC1,inactive,
COc1ccc2c(c1)CCCN2C(N)=O,,"inconclusive: 29.1 µM [falling, single point]"
COc1ccc(NC(=O)c2sc3nc(-c4cccnc4)ccc3c2N)cc1,inconclusive: 9.26%,
COc1ccc(NC(=O)c2ccc3ccccc3n2)cc1S(=O)(=O)N1CCCCC1,inconclusive: 8.66%,
COC(=O)CSc1n[nH]c(-c2ccncc2)n1,inconclusive: -61.8%,
COc1ccc(NC(=O)c2ccc3c(=O)n(-c4ccc(OC)cc4OC)c(=S)[nH]c3c2)cc1,inconclusive: -22.7%,
CCCOc1ccc2oc(=O)c3c(c2c1)CCCN3C(=O)CN(C)Cc1ccccc1,,"inconclusive: 3.26 µM [activator, single point]"
Cc1ccc2[nH]c3c(=O)n(Cc4ccncc4)cnc3c2c1,,"inconclusive: 6.51 µM [rising, single point]"
Cc1ccc(C)c(N(C(=O)c2snc(C(N)=O)c2N)C(C(=O)NCC2CCCO2)c2ccc(C)o2)c1 (stereo not given),,"inconclusive: 0.0046 µM [falling, full curve, poor fit]"
CCN(CC(=O)Nc1ccccc1C(F)(F)F)C(=O)CSCc1ccc(C)cc1,inactive,
CC(=O)Nc1ccc(S(=O)(=O)NCC2CCC(C(=O)NC(C)c3ccc4c(c3)OCCO4)CC2)cc1 (stereo not given),inconclusive: 6.68%,
CCCN(CC(=O)Nc1ccc(F)c(F)c1F)C(=O)C1CC(=O)N(Cc2ccccc2)C1 (stereo not given),inconclusive: 14.9%,
COc1ccc(-c2noc(CCCC(=O)NC3CCCC3)n2)cc1,inconclusive: 76.5%,
COc1ccc2cc3c(N)c(C(=O)NCc4ccco4)sc3nc2c1,inconclusive: -49.4%,
